According to PubChem BioAssay AID540256 (National Center for Advancing Translational Sciences (NCATS), 2011):
Out of some 300,000 compounds screened, about 3,700 (1.2%) were called active. Inconclusive means that the source gave no clear call. Such entries were picked first, then a sample of the others. Calls come from the whole dose curve; tested in HEK293 cells. Where the call is inconclusive, the potency comes from a doubtful curve fit.

assay: qHTS for Inhibitors of binding or entry into cells for Lassa Virus; conditions: Lassa virus pseudotype entry inhibition, cell reporter; series mostly up to 37.9 µM; note: nearly all actives have a fitted effect of over 50% in size
Potency is the fitted concentration of half-maximal effect.

Structure (SMILES) | Potency
CC1C(=O)N(Cc2cn(CC3CCCCC3)nn2)CCS(=O)(=O)N1Cc1ccc(-c2ccc(F)nc2)cc1 (centres undefined) | inconclusive: 0.0004 µM [inhibitor]
CCCOc1cccc(C(=O)N(Cc2ccc(OC)c(OC)c2)C2CCS(=O)(=O)C2)c1 (centres undefined) | inactive
COc1ccccc1NC(=O)C(CCS(C)(=O)=O)N1C(=O)c2ccccc2C1=O (centres undefined) | inconclusive: 0.0164 µM [inhibitor, full curve, poor fit]
Cc1nc(Nc2cccc(C(C)O)c2)c2nnn(Cc3ccc(F)cc3)c2n1 (centres undefined) | inconclusive: 35.5 µM [inhibitor, single point]
O=C(N/C(=C/c1ccccc1)C(=O)N1CCCCC1)c1ccccc1 | inactive
Cn1c2[n+](c3ccc(Cl)cc3c1=O)Cc1ccccc1-2 | inconclusive: 5.62 µM [inhibitor, single point]
COc1ccccc1-c1cc2nc(C)c(CCC(=O)NCc3cccc(Cl)c3)c(C)n2n1 | inconclusive: 10 µM [inhibitor, partial curve, poor fit]
CCN(CC)S(=O)(=O)c1ccc2c(c1)c(=O)c(C(=O)N1CCN(c3cccc(C)c3)C(C)C1)cn2C (centres undefined) | inactive
COc1ccc(C(=O)NCc2cc(C)nc3ccccc23)cc1 | inconclusive: 4.61 µM [inhibitor, full curve, poor fit]
Cc1cc(/C=N/Nc2ncnc(N)c2[N+](=O)[O-])c(C)n1-c1ccccc1 | active: 1.12 µM
COc1ccccc1CCC(=O)Nc1ccc(OC)c(S(=O)(=O)N2CCOCC2)c1 | inactive
O=C(Nc1nnc(S(=O)(=O)N2CCCc3ccccc32)s1)c1ccccc1 | inconclusive: 10 µM [activator, partial curve, poor fit]
Cc1ccc(NC(=O)CN(C)CC(=O)Nc2ccc(N3CCOCC3)cc2)c([N+](=O)[O-])c1 | inconclusive: 0.282 µM [activator, partial curve, poor fit]
Cc1ccccc1Cn1ccc(-c2ccc3c(c2)OCO3)n1 | inconclusive: 14.6 µM [activator, partial curve, poor fit]
COc1ccc(Cn2c(=O)n(Cc3ccco3)c(=N)c3c4c(sc32)COC(C)(C)C4)cc1 | inconclusive: 15.8 µM [inhibitor, single point]
COc1cc2c(cc1OC)C(C(=O)Nc1ccc3c(c1)OCCO3)C(c1cccnc1)N(C)C2=O (centres undefined) | inconclusive: 20 µM [inhibitor, single point]
O=C(NCCc1ccccc1)c1ccc(CS(=O)Cc2cccc(Cl)c2)o1 (centres undefined) | inactive
CCOC(=O)c1c(NC(=S)N2CCN(C)CC2)sc(C)c1-c1ccccc1 | active: 8.91 µM
Cn1c(O)c(N=NC(=O)Cn2ccc(C(F)(F)F)n2)c2ccccc21 | inactive
Nc1nc(-c2ccccc2)nc2sc3c(c12)CCCC3 | inconclusive: 3.16 µM [inhibitor, full curve]
C=CCc1ccc(OCCCCNC2CCCC2)c(OC)c1 | inconclusive: 1.83 µM [inhibitor, partial curve, poor fit]
COCc1ccc(C(=O)N2CCCC(N3CCN(c4ccc(F)cc4)CC3)C2)o1 (centres undefined) | inconclusive: 10 µM [inhibitor, partial curve, poor fit]

Structure (SMILES) | Potency
CCOc1ccccc1CNC(=O)c1cccn1-c1nnc(N2CCCCC2)s1 | inconclusive: 3.55 µM [activator, partial curve, poor fit]
Cc1ccc(-n2c(CNc3cccc(Cl)c3)n[nH]c2=S)cc1 | inactive
O=C(COc1ccccc1)Nc1cccc(-c2cn3cccnc3n2)c1 | inconclusive: 11.2 µM [inhibitor, partial curve, poor fit]
CCOc1ccc(N(C)C(CNS(=O)(=O)c2ccccc2)c2ccccc2)cc1 (centres undefined) | inconclusive: 1.26 µM [inhibitor, full curve, poor fit]
CC(C)c1ccc(Nc2nnc(SCC(=O)NCC3CCCO3)s2)cc1 (centres undefined) | inconclusive: 35.5 µM [inhibitor, single point]
CC(C)CCn1c(=O)c2sccc2n2c(CCCC(=O)NCc3ccc(F)cc3)nnc12 | inactive
CCOC(=O)NC1=NCC(C)(C)S1 | inconclusive: 12.6 µM [activator, single point]
Cc1c(C(=O)Nc2ccc(F)cc2)sc2nc[nH]c(=O)c12 | inactive
CCc1ccccc1NC(=O)c1cc(S(=O)(=O)N2CCCc3ccccc32)ccc1F | inactive
COCc1cc(=O)n2[nH]c(-c3cccs3)cc2n1 | inactive
C=CCN(C(=O)c1csnn1)C(C(=O)NC1CCCC1)c1ccc(OC)cc1 (centres undefined) | inconclusive: 12.6 µM [activator, single point]
COc1ccc(CCN2CC(C(=O)OCC(=O)Nc3c(C)nn(-c4ccccc4)c3C)CC2=O)cc1OC (centres undefined) | inconclusive: 31.6 µM [activator, single point]
CC(C)n1c(CNC(=O)c2ccccc2F)nnc1SCC(=O)NC1CCCCC1 | inactive
CCOC(=O)c1cc2c(s1)-c1ccccc1CC2 | inactive
Cc1nn(-c2cccc(Cl)c2)c2nc(C(F)(F)F)[nH]c(=O)c12 | inactive
Nc1nc(SCc2ccccc2)cc(SCc2ccccc2)n1 | inconclusive: 6.31 µM [inhibitor, full curve, poor fit]
Cc1nc2ccccc2c(=O)n1Nc1cccc(Cl)c1 | inconclusive: 6.51 µM [inhibitor, single point]
COc1cccc(NC(=O)c2cccc(C(=O)Nc3cccc(OC)c3)n2)c1 | inconclusive: 6.31 µM [inhibitor, single point]
O=C(Nc1ccncc1)OCc1ccccc1 | inactive
O=C(CSCc1cnn(-c2ccccc2)c1-n1cccc1)NCC1CCCO1 (centres undefined) | inconclusive: 2.24 µM [inhibitor, full curve]
COc1ccc([C@H]2C[C@@H](n3cc(C4CC4)nn3)[C@H](O)CN2Cc2cccs2)cc1 | inconclusive: 15.8 µM [inhibitor, partial curve, poor fit]
COc1ccccc1-n1c(-c2ccc(C)cc2)cn2c3c(=O)n(C)c(=O)n(C)c3nc12 | inconclusive: 1.26 µM [inhibitor, full curve, poor fit]

Gathered by group, the compounds so far containing a nitro group on carbon
Structure (SMILES) | Potency
Cc1cc(/C=N/Nc2ncnc(N)c2[N+](=O)[O-])c(C)n1-c1ccccc1 | active: 1.12 µM
Cc1ccc(NC(=O)CN(C)CC(=O)Nc2ccc(N3CCOCC3)cc2)c([N+](=O)[O-])c1 | inconclusive: 0.282 µM [activator, partial curve, poor fit]
